Publication doi:10.1101/447904

Sequences of proteins named here, by UniProt entry; tags and fusion partners are left off.
UniProt P26651: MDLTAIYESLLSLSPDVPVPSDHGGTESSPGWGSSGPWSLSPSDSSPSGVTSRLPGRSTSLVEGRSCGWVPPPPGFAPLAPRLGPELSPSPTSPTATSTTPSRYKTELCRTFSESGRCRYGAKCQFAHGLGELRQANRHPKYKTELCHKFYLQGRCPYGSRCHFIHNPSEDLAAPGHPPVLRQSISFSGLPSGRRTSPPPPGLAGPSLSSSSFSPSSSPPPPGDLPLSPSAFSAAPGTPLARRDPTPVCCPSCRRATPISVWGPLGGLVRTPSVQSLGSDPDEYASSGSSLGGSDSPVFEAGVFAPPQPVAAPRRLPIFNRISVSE
UniProt P11940: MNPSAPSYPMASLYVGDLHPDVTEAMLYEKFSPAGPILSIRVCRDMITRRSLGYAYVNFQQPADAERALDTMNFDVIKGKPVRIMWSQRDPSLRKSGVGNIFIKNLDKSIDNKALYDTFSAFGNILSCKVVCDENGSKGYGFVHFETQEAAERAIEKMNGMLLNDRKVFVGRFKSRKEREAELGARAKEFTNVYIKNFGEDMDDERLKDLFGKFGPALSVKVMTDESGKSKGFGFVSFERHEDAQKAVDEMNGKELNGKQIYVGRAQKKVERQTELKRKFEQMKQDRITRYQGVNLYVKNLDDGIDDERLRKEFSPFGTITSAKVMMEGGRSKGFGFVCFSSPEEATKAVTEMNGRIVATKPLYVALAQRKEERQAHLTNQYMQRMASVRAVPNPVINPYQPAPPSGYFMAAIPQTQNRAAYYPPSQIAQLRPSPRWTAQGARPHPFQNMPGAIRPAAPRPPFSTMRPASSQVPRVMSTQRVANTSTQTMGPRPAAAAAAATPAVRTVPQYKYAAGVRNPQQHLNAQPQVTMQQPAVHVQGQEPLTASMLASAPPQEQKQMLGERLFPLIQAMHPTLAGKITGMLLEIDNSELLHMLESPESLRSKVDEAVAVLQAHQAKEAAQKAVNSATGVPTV

Molecular target: GFP-TTP (ZFP36, Tristetraprolin, with an N-terminal GFP-tag) (UniProt P26651)
Test: affinity purification with mass spectrometry

binding | Molecule
binds | PABC1 (from UniProt P11940 1-636)
binds | UPF1 (protein, UniProt Q92900 1-1129) MSVEAYGPSSQTLTFLDTEEAELLGADTQGSEFEFTDFTLPSQTQTPPGGPGGPGGGGAGGPGGAGAGAAAGQLDAQVGPEGILQNGAVDDSVAKTSQLLAELNFEEDEEDTYYTKDLPIHACSYCGIHDPACVVYCNTSKKWFCNGRGNTSGSHIVNHLVRAKCKEVTLHKDGPLGETVLECYNCGCRNVFLLGFIPAKADSVVVLLCRQPCASQSSLKDINWDSSQWQPLIQDRCFLSWLVKIPSEQEQLRARQITAQQINKLEELWKENPSATLEDLEKPGVDEEPQHVLLRYEDAYQYQNIFGPLVKLEADYDKKLKESQTQDNITVRWDLGLNKKRIAYFTLPKTDSGNEDLVIIWLRDMRLMQGDEICLRYKGDLAPLWKGIGHVIKVPDNYGDEIAIELRSSVGAPVEVTHNFQVDFVWKSTSFDRMQSALKTFAVDETSVSGYIYHKLLGHEVEDVIIKCQLPKRFTAQGLPDLNHSQVYAVKTVLQRPLSLIQGPPGTGKTVTSATIVYHLARQGNGPVLVCAPSNIAVDQLTEKIHQTGLKVVRLCAKSREAIDSPVSFLALHNQIRNMDSMPELQKLQQLKDETGELSSADEKRYRALKRTAERELLMNADVICCTCVGAGDPRLAKMQFRSILIDESTQATEPECMVPVVLGAKQLILVGDHCQLGPVVMCKKAAKAGLSQSLFERLVVLGIRPIRLQVQYRMHPALSAFPSNIFYEGSLQNGVTAADRVKKGFDFQWPQPDKPMFFYVTQGQEEIASSGTSYLNRTEAANVEKITTKLLKAGAKPDQIGIITPYEGQRSYLVQYMQFSGSLHTKLYQEVEIASVDAFQGREKDFIILSCVRANEHQGIGFLNDPRRLNVALTRARYGVIIVGNPKALSKQPLWNHLLNYYKEQKVLVEGPLNNLRESLMQFSKPRKLVNTINPGARFMTTAMYDAREAIIPGSVYDRSSQGRPSSMYFQTHDQIGMISAGPSHVAAMNIPIPFNLVMPPMPPPGYFGQANGPAAGRGTPKGKTGRGGRQKNRFGLPGPSQTNLPNSQASQDVASQPFSQGALTQGYISMSQPSQMSQPGLSQPELSQDSYLGDEFKSQIDVALSQDSTYQGERAYQHGGVTGLSQY

Results are given in words; binding and its absence hold for the method and conditions named. Binding seen in cells or lysates may run through a third protein. A yes stands for co-enrichment or nearness to the bait. Other partners may have been found.
